Measured values: the supplement of paper PMC10849652
This is one part of the list.

Protein sequences, listed by entry. Tags and fused reporters are not part of them. Lines headed by an entry give the natural chain unless they say otherwise; changes in a name come on top.
UniProt Q15438: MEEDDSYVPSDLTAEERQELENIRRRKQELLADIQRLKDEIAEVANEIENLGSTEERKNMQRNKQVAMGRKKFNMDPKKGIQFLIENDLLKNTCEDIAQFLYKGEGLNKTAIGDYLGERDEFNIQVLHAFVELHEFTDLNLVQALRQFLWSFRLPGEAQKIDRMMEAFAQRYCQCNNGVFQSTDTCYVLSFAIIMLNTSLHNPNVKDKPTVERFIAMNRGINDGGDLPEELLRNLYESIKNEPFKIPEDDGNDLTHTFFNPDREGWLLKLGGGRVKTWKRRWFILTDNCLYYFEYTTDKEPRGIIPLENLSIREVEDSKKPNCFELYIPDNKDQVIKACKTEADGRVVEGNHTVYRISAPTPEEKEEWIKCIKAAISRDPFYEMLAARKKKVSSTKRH
UniProt Q96QD5: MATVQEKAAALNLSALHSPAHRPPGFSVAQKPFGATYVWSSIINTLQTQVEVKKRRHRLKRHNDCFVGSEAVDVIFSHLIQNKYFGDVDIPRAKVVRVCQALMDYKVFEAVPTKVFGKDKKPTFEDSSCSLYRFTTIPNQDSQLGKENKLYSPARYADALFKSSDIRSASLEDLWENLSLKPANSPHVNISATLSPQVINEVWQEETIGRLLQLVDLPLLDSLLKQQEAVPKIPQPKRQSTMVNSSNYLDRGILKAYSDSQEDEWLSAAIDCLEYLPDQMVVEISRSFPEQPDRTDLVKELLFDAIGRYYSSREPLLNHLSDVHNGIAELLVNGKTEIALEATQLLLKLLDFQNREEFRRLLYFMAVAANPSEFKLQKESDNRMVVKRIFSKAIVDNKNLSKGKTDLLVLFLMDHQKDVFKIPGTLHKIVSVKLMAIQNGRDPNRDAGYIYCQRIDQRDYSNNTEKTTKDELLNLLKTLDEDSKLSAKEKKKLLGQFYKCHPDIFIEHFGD
UniProt Q6IQ26: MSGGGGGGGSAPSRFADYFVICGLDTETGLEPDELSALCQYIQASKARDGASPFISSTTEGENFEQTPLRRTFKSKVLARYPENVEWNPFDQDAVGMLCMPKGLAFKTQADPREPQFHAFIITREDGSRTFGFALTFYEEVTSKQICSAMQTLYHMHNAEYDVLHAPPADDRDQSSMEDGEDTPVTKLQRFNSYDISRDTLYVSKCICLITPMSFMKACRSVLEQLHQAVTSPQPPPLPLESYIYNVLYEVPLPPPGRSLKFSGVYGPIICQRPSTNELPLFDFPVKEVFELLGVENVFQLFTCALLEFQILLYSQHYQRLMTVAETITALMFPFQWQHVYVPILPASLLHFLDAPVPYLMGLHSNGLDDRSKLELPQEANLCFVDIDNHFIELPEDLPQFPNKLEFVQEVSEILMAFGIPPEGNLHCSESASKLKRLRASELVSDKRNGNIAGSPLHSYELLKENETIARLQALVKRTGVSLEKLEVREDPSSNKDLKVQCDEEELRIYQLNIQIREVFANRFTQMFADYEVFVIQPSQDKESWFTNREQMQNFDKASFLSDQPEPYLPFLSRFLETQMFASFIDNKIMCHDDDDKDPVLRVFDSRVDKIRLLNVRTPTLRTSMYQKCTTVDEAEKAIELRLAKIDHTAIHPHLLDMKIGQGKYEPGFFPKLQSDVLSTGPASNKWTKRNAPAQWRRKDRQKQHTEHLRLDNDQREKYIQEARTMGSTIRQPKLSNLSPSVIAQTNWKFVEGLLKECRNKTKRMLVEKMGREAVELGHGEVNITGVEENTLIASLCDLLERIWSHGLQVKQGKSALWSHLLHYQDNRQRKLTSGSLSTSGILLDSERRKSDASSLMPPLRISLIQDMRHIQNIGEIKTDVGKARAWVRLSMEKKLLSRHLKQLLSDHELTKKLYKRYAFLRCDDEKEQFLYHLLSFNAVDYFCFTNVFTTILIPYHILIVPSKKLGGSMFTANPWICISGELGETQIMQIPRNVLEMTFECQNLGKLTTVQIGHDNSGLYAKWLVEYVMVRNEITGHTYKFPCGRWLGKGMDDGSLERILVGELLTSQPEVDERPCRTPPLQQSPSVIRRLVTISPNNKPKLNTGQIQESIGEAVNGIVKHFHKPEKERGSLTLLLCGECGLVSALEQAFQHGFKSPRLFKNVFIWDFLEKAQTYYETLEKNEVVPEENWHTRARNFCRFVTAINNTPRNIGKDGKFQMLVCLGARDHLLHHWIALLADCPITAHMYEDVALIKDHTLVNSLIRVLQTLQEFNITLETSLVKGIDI
UniProt Q5H9U9: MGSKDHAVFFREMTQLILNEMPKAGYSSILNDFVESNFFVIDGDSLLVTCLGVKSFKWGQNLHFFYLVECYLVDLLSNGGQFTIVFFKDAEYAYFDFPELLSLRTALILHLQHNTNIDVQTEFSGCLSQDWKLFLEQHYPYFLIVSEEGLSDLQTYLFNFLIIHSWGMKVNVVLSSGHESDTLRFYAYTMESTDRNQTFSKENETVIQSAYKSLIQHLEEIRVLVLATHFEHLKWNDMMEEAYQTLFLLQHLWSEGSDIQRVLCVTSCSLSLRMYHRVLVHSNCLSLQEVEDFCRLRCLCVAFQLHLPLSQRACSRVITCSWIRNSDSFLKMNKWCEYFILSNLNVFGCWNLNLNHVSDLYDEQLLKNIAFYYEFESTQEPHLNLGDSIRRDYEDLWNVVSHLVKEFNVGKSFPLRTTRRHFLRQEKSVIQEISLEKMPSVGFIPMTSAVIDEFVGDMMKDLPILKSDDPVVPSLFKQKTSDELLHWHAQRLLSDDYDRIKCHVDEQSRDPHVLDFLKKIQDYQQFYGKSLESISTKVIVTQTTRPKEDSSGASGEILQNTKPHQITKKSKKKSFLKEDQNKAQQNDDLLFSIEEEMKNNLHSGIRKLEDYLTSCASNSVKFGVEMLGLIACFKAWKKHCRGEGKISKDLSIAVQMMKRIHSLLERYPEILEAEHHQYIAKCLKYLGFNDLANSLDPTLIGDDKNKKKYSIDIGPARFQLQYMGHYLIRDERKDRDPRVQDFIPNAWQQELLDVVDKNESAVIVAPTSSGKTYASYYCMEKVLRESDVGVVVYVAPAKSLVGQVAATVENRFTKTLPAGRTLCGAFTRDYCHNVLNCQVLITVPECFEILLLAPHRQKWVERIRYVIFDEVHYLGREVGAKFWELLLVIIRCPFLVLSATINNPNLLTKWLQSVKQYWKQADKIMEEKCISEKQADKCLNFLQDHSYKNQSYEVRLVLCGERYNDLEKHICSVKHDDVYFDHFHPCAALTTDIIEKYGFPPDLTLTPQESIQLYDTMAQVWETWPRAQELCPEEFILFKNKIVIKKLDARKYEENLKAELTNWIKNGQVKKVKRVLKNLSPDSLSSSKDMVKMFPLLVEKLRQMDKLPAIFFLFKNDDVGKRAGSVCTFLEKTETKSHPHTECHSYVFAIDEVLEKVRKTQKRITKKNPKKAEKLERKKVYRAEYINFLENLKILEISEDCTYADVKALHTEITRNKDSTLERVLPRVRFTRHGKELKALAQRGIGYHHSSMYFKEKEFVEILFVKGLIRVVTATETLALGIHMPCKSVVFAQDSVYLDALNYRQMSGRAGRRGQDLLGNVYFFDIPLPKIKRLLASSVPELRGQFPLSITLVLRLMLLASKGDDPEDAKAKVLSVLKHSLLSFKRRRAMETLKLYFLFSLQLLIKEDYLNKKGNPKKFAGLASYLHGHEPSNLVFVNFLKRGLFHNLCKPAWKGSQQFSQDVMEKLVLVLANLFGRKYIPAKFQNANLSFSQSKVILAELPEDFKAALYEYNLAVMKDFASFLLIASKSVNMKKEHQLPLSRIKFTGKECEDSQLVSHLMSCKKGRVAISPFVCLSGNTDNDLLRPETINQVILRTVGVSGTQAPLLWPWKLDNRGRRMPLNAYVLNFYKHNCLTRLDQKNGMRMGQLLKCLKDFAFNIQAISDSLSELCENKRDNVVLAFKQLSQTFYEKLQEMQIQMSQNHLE
UniProt Q8N8A6: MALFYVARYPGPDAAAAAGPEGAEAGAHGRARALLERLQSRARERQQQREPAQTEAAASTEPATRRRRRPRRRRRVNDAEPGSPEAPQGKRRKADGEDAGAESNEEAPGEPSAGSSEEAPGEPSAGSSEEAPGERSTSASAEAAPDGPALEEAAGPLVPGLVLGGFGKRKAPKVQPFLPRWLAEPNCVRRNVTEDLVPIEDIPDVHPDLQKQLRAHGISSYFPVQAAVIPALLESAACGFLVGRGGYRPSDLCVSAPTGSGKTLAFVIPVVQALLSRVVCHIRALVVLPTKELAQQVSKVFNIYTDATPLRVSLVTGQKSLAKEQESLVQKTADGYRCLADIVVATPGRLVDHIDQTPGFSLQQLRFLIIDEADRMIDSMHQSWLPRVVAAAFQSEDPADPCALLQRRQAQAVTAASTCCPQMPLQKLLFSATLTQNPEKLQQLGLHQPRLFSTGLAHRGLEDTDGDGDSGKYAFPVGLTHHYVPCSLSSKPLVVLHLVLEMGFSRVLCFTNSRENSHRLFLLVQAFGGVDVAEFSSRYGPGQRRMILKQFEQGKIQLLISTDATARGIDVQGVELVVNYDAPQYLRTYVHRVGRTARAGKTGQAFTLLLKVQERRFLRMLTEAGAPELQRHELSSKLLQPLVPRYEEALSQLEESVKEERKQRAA
UniProt O43739: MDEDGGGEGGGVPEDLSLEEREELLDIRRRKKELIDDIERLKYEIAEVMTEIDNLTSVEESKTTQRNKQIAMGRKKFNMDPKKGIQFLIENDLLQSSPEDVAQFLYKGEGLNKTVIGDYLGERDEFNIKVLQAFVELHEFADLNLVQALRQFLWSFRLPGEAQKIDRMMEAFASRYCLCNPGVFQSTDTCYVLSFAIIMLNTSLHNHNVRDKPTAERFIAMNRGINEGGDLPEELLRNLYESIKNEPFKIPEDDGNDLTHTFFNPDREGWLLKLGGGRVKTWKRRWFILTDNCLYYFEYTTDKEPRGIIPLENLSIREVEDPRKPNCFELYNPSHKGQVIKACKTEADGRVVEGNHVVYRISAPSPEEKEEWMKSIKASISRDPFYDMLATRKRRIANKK
UniProt Q9BWK5: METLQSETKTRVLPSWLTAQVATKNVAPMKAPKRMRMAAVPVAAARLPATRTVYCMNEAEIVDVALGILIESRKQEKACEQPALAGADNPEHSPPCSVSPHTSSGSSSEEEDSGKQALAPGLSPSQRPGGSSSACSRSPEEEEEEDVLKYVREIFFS
UniProt Q9NUU7: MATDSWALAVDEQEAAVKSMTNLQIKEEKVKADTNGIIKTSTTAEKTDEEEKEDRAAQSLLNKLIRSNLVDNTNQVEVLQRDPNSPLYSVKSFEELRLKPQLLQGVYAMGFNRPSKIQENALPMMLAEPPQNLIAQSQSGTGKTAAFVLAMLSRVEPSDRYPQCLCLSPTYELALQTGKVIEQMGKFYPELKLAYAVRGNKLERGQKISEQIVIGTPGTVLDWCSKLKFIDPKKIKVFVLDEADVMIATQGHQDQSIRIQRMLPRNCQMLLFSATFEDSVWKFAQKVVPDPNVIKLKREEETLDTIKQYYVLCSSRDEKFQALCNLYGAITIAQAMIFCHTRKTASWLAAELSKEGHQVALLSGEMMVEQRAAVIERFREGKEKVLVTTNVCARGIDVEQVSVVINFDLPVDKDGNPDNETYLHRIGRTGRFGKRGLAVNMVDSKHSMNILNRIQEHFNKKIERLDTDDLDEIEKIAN
UniProt Q6ZN54: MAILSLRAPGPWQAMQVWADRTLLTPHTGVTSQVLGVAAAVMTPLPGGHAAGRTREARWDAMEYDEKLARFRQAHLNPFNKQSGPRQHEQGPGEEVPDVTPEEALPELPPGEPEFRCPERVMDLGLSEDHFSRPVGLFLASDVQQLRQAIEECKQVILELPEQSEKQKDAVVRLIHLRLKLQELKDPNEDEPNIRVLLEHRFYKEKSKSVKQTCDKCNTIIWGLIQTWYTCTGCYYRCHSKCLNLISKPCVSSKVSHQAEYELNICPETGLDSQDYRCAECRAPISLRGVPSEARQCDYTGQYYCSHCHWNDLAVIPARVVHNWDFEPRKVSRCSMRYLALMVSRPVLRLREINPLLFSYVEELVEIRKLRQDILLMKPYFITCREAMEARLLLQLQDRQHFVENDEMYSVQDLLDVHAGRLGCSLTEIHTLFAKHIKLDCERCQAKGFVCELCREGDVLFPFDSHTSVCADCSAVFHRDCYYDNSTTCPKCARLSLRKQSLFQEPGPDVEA
UniProt Q6ICB0: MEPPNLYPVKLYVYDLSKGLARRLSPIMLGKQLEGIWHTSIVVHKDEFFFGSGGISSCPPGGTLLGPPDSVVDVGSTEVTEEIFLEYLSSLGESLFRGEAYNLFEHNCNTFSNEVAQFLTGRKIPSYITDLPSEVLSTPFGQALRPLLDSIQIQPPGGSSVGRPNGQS
UniProt Q9BSY9: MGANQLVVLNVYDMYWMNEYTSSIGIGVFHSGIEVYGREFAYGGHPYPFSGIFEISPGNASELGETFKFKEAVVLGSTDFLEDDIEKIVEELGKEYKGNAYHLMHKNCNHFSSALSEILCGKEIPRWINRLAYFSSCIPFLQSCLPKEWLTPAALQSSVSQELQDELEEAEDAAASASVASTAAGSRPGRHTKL

What was measured:
Experiment in all cases: log2 fold change, soluble protein after heating vs DMSO (PISA); higher = thermal stabilisation; K562 lysate, 10 uM; active = over 0.2 and 3.5 SD of the protein, either way, in both replicates (recomputed)
[1] = compound: CCCS(=O)(=O)Nc1ccc(F)c(C(=O)c2c[nH]c3ncc(Cl)cc23)c1F
In short: (§1)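 K562 pellets were dounce-homogenised in PBS pH 7.4 with 1 mM MgCl2, and the crude extract at 1 mg/mL protein was treated with 10 μM compound for 30 min. Aliquots were heated for 3 min across 48°C-58°C, pooled, and brought to 0.5% NP-40 at 4°C; soluble protein was the supernatant after 21,000xg for 90 min. Soluble protein was quantified by TMTpro 16plex LC-MS/MS with channel sums equalised, and reported as log2 fold change in thermal stability against DMSO controls, with values from duplicates.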

[2] = compound: CCN(CCCOc1ccc2c(Nc3cc(CC(=O)Nc4cccc(F)c4)[nH]n3)ncnc2c1)CCOP(=O)(O)O [barasertib]
In short: as §1

[3] = compound: CC[C@@H]1C(=O)N(C)c2cnc(Nc3ccc(C(=O)NC4CCN(C)CC4)cc3OC)nc2N1C1CCCC1
In short: as §1

[4] = compound: CC[C@@H]1C(=O)N(C)c2cnc(Nc3ccc(C(=O)N[C@H]4CC[C@H](N5CCN(CC6CC6)CC5)CC4)cc3OC)nc2N1C(C)C [volasertib]
In short: as §1

[5] = compound: CCn1c(C(=O)N(C2CC2)C2CC2)cc2c3c(ncn3C)c(Nc3cc(C)n(C)n3)nc21
In short: as §1

[6] = compound: CCn1cc(-c2ccnc3[nH]c(-c4cccc(CN(C)C)c4)cc23)c(-c2ccc(NC(=O)N(C)C)cc2)n1
In short: as §1

[7] = compound: CN1CCC(CNc2ccc3ncc(-c4cccc(OC(F)(F)F)c4)n3n2)CC1
In short: as §1

[8] = compound: CN1CCN(c2nc(C3=C(c4c[nH]c5ccccc45)C(=O)NC3=O)c3ccccc3n2)CC1 [sotrastaurin]
In short: as §1

[9] = compound: CN1CCN(CCOc2cc(OC3CCOCC3)c3c(Nc4c(Cl)ccc5c4OCO5)ncnc3c2)CC1 [saracatinib]
In short: as §1

[10] = compound: CCCS(=O)(=O)Nc1ccc(F)c(C(=O)c2c[nH]c3ncc(-c4ccc(Cl)cc4)cc23)c1F [vemurafenib]
In short: as §1

Measured: log2 fold change

CYTH1 (UniProt Q15438)
inactive: [1] -0.008 | [2] -0.052 | [3] 0.011 | [4] -0.029 | [5] -0.087 | [6] 0.018 | [7] 0.073 | [8] -0.052

DEPDC7 (UniProt Q96QD5)
inactive: [3] -0.127 | [6] 0.084 | [7] -0.188

DENND5A (UniProt Q6IQ26)
inactive: [9] 0.032 | [8] -0.05

DENND5B isoform 2 (UniProt Q6ZUT9)
inactive: [2] 0.116 | [5] -0.089 | [6] -0.167 | [7] 0.148 | [9] -0.121

DEAF1 (UniProt O75398)
inactive: [3] -0.056 | [9] 0.138

DDX60L (UniProt Q5H9U9)
inactive: [1] 0.024 | [4] 0.311 | [9] 0.014

DDX39B (UniProt F6R6M7)
inactive: [6] -0.125 | [7] 0.03

DDX51 (UniProt Q8N8A6)
inactive: [1] -0.019 | [4] -0.013 | [5] -0.003 | [6] -0.106 | [7] -0.025 | [9] -0.024 | [8] 0.052

DENND1C (UniProt Q8IV53)
inactive: [10] -0.008 | [2] -0.099 | [5] -0.072 | [9] 0 | [8] -0.048

CYTH3 (UniProt O43739)
inactive: [1] 0.016 | [4] 0.012 | [5] -0.114 | [6] -0.026 | [7] -0.014

CYREN isoform 4 (UniProt Q9BWK5)
inactive: [5] 0.07 | [6] 0.058 | [7] -0.09 | [9] -0.08 | [8] 0.007

DDX19A isoform 2 (UniProt Q9NUU7)
inactive: [8] -0.09

DDX39B (UniProt H0Y400)
inactive: [1] -0.048 | [4] 0.009

2 entries drawn at random from those above, as already listed:
CYTH3 (UniProt O43739)
inactive: [1] 0.016 | [4] 0.012 | [5] -0.114 | [6] -0.026 | [7] -0.014

DENND1C (UniProt Q8IV53)
inactive: [10] -0.008 | [2] -0.099 | [5] -0.072 | [9] 0 | [8] -0.048

Later entries.

DEF8 (UniProt Q6ZN54)
inactive: [10] 0.03 | [2] -0.018 | [3] -0.259 | [9] -0.044 | [8] 0.13

DESI1 (UniProt Q6ICB0)
inactive: [10] -0.013 | [2] 0.046 | [3] 0.001 | [6] 0.129 | [7] -0.075 | [9] 0 | [8] -0.026

DDX11 (UniProt Q96FC9)
inactive: [10] -0.097 | [5] -0.069 | [6] -0.074 | [7] 0.009 | [9] -0.024 | [8] 0.077

DCAF4 (UniProt Q8WV16)
inactive: [1] -0.319 | [2] 0.032 | [3] -0.101 | [4] 0.207 | [6] -0.103 | [7] 0.108 | [9] 0.028 | [8] -0.023

DEUP1 (UniProt Q05D60)
inactive: [1] 0 | [2] 0.16 | [3] 0.078 | [4] 0.006 | [5] -0.581 | [9] 0.041 | [8] 0.215

DCAKD (UniProt Q8WVC6)
inactive: [10] 0.06 | [5] -0.036

DESI2 (UniProt Q9BSY9)
inactive: [10] 0.064 | [3] 0.089 | [6] 0.116 | [7] -0.113
